Source: patent US7211594B2, “Indazole compounds and compositions thereof as JNK inhibitors and for the treatment of diseases associated therewith” (Signal Pharmaceuticals, LLC, priority 2000, dated 2007)
Some entries share one result that the patent states for a list of compounds.

Target: His6-JNK2 (Homo sapiens, UniProt P45984)
Test: JNK2 Assay (c-Jun phosphorylation, 32P-ATP filter assay)
Type: biochemical
Settings: concentration at which GST-c-Jun(1-79) phosphorylation is reduced to 50% of the control value; 11 μM ATP

## ETHYL (2E)-3-[3-(4-FLUOROPHENYL)-1H-INDAZOL-5-YL]PROP-2-ENOATE [Example 141]
  IC50: ≤ 10 µM
